# Patent US20080287649 (published 2008)
# Assay: general procedure: Fmoc solid-phase peptide synthesis; Fmoc Rink Amide MBHA resin
# Conditions: 1:1 trifluoroacetate; for crude HPLC purity / crude purity (method not given): whole synthesis
substance,measurement,setting,value
Cyclo (Asp-Lys) Pentanoyl-Asp-(4-MeO-Apc)-D-Phe-Arg-Lys-NH2 1:1 Trifluoroacetate,final purity (method not given),"purification step, % AN, assay % w/w",94%
same,step yield,"purification step, overall contained yield",85%
same,crude HPLC purity,"% AN, run 1",30.70%
same,crude HPLC purity,"% AN, run 2",46.30%
same,crude HPLC purity,"% AN, run 3",45.30%
same,crude purity (method not given),"% AN, assay % w/w, run 1",8%
same,crude purity (method not given),"% AN, assay % w/w, run 2",10%
